Results taken from PubChem BioAssay AID1671190 (National Center for Advancing Translational Sciences (NCATS), 2021).
Among all 580,000 compounds or so, about 6,100 (1.1%) were called active. The inconclusive results got no clear call from the source; some entries with a clear call stand among them for comparison. Calls come from the whole dose curve; as a rule, active = well fitted inhibition curve with a large enough effect; inconclusive = small, poorly fitted or top-dose-only effect, or another doubt; inactive = no such curve, though single readings can be large or run the other way. Potencies beside an inconclusive call are fits to weak or partial responses and may not hold up.

Protein sequences, listed by entry. Tags and fused reporters are not part of them. Lines headed by an entry give the natural chain unless they say otherwise; changes in a name come on top.
UniProt P18054: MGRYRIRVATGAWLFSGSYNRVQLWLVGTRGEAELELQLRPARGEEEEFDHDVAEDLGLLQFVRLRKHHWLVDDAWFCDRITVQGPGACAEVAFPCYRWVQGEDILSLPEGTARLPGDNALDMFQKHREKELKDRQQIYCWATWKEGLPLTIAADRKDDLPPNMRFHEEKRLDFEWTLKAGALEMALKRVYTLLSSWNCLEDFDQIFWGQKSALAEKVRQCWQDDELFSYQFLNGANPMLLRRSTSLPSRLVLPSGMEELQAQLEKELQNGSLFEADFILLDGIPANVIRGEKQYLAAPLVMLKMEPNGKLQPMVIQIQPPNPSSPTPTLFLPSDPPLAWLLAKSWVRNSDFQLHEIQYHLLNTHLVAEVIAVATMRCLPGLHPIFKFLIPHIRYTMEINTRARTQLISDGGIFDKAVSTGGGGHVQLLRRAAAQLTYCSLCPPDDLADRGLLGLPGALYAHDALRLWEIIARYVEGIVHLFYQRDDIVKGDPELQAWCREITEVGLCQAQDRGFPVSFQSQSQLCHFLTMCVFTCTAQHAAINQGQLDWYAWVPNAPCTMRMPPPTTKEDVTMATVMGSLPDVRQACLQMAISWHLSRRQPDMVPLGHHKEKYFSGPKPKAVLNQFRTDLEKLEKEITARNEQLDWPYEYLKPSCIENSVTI

Target: Polyunsaturated fatty acid lipoxygenase ALOX12 (Homo sapiens) (UniProt P18054)
Test: Primary qHTS assay for inhibitors of human arachidonate 12S-lipoxygenase (ALOX12): Round 2
Conditions: purified 12hLO, xylenol orange hydroperoxide absorbance; activity change, negative = inhibition: at 108 µM (top of the series) unless noted
Procedure, shortened: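 Purified human 12hLO (150 nM final) in 25 mM Hepes, 0.01% Triton X-100, pH 7.0 was preincubated 15 min at room temperature with compound. Then 40 uM arachidonic acid was added, 30 min. Hydroperoxide was read by Fe-XO absorbance ratio 573/405 nm.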
% is set by controls: 0 for no effect and ±100 for the full control effect; potency is the fitted concentration of half-maximal effect.

| SMILES | activity change, negative = inhibition | Potency |
| --- | --- | --- |
| C=CCn1c(-c2ccccc2[N+](=O)[O-])n[nH]c1=S | inactive: 0.229% | – |
| COc1ccc(C2CNC(=O)C2)cc1OC1CCCC1 (configuration not stated) | – | inconclusive: 30.6 µM [inhibitor, partial curve, poor fit] |
| COc1cccc(NC(=O)CSc2nc3ccccc3c(=O)n2CCCC(=O)NCC2CCCO2)c1 (configuration not stated) | – | inconclusive: 6.31 µM [inhibitor, full curve, poor fit] |
| O=C(Nc1cccc(Cl)c1)C1CCN(c2cnc3ccccc3n2)CC1 | inconclusive: -33.8% [inhibitor] | – |
| COc1ccc(S(=O)(=O)Cc2ccc(C(=O)N3CCc4ccccc4C3)o2)cc1 | – | inconclusive: 11.2 µM [inhibitor, partial curve, poor fit] |
| O=C(O)c1cccnn1 | – | inconclusive: 2.24 µM [inhibitor, full curve, poor fit] |
| COc1cccc(NC(=O)CCC[C@H]2NC[C@@H]3C[C@H]2CN(Cc2ccccc2)C3)c1 | inactive: -0.1% | – |
| S=c1[nH]nc(Cc2ccccc2)n1-c1ccc(Cl)cc1 | – | inconclusive: 50.1 µM [inhibitor, partial curve, poor fit] |
| Cc1ccc(CN2CCc3nc(N4CCN(C)CC4)ncc3C2)s1 | – | inconclusive: 50.1 µM [inhibitor, partial curve, poor fit] |
| CC(C)(C)N(CC#CCC(O)(c1ccccc1)c1ccccc1)CCO | – | active: 7.94 µM |
| COc1ccc(CNC(=O)C(=O)NCC2CCCN2S(=O)(=O)c2cccs2)cc1 (configuration not stated) | inactive: 8.66% | – |
| O=C(/C=C/c1ccccc1O)c1ccc2ccccc2c1 | – | inconclusive: 39.8 µM [inhibitor, partial curve, poor fit] |
| CCCCCNC(=O)C(c1cc2ccccc2o1)n1c(=O)c(-c2cc3ccccc3[nH]2)nc2ccccc21 (configuration not stated) | – | inconclusive: 44.7 µM [inhibitor, partial curve, poor fit] |
| Cc1cc(C)n(Cc2ccc(C(=O)N3CC4CC(C3)[C@H]3CCCC(=O)N3C4)o2)n1 (some centres not stated) | inactive: 39.7% | – |
| CCOc1ccccc1N1CCN(C(=S)NCc2ccco2)CC1 | inactive: -12.1% | – |
| COc1ccccc1OC(C)C(=O)N1CCN(Cc2ccc3c(c2)OCO3)CC1 (configuration not stated) | – | inconclusive: 50.1 µM [inhibitor, partial curve, poor fit] |
| Cc1ccc(S(=O)(=O)Nc2ccc(S(=O)(=O)NC(C)(C)C)cc2)cc1 | inactive: 0% | – |
| COc1cc(OC)cc(-c2nc(C3CC(=O)N(c4ccc(Cl)cc4)C3)no2)c1 (configuration not stated) | inactive: 13.6% | – |
| Cc1ccc(-n2ncc3c(N4CCC(Cc5ccccc5)CC4)ncnc32)cc1 | – | inconclusive: 100 µM [inhibitor, partial curve, poor fit] |
| O=C1/C(=C/c2ccccc2)COc2ccccc21 | inactive: 13.4% | – |
| Cc1ccc(C)c(NC(=O)Cc2ccsc2)c1 | inactive: -57.1% | – |
| S=C(NCC1COc2ccccc2O1)Nc1ccc(Br)cc1 (configuration not stated) | – | inconclusive: 44.7 µM [inhibitor, partial curve, poor fit] |
| O=C(NCc1n[nH]c(=O)c2ccccc12)c1ccccc1Cl | inactive: 1.27% | – |
| FC(F)(F)c1cccc(N2CCN(C(=S)NCC3CCCO3)CC2)c1 (configuration not stated) | inactive: 2.03% | – |

By substructure, the compounds so far containing a thiophene ring, fused or not (3)

| SMILES | activity change, negative = inhibition | Potency |
| --- | --- | --- |
| Cc1ccc(CN2CCc3nc(N4CCN(C)CC4)ncc3C2)s1 | – | inconclusive: 50.1 µM [inhibitor, partial curve, poor fit] |
| COc1ccc(CNC(=O)C(=O)NCC2CCCN2S(=O)(=O)c2cccs2)cc1 (configuration not stated) | inactive: 8.66% | – |
| Cc1ccc(C)c(NC(=O)Cc2ccsc2)c1 | inactive: -57.1% | – |

Later entries.

| SMILES | activity change, negative = inhibition | Potency |
| --- | --- | --- |
| CCc1nc2c(OCc3ccc(Cl)cc3)cccn2c1N(C)C(=O)c1ccncc1 | inactive: 0.335% | – |
| C=CCn1c(SCc2nc3sc(C(=O)O)c(C)c3c(=O)[nH]2)nnc1-c1ccccc1 | inactive: -22.5% | – |
| C[C@H](N)c1nnc(SCC(=O)c2ccc(Cl)cc2)o1 | inactive: 6.25% | – |
| CS(=O)(=O)N1CCC(C(=O)Nc2ccc(F)cc2F)CC1 | inactive: 20.7% | – |
| Cc1ccc(S(=O)(=O)Nc2nc3ccccc3nc2N2CCN(c3ccccc3)CC2)cc1 | – | inconclusive: 31.6 µM [inhibitor, partial curve, poor fit] |
| O=C1c2cccc(-c3ccc(C(F)(F)F)cc3)c2C2CC=CCN12 (configuration not stated) | – | inconclusive: 70.8 µM [inhibitor, single point] |
| Cc1nnc(SCCn2c(N3CCCC(C)C3)nc3c2c(=O)n(C)c(=O)n3C)s1 (configuration not stated) | inactive: 5.04% | – |
| COc1ccc(C2c3ccc4ccccc4c3Oc3ncn(CCN4CCOCC4)c(=N)c32)cc1OC (configuration not stated) | – | inconclusive: 50.1 µM [inhibitor, partial curve, poor fit] |
| COC(=O)c1cc(CNC(=O)c2ccc3ncccc3c2)cc(NC(=O)c2ccccc2Cl)c1 | – | inconclusive: 89.1 µM [inhibitor, single point] |
| CCC1=NN(C(=O)CSCc2ccccc2Cl)C(O)(C(F)(F)F)C1 (configuration not stated) | inactive: 12.9% | – |
| CN(C)S(=O)(=O)c1cccc(NC(=O)CSc2cccc3cccc(Cl)c23)c1 | – | inconclusive: 31.6 µM [inhibitor, partial curve, poor fit] |
| CC(=O)C1=C(c2ccccc2)OC(N)=C(C#N)C1c1ccc(O)cc1 (configuration not stated) | – | inconclusive: 79.4 µM [inhibitor, single point] |
| CC1CC(C)CN(C(=O)COC(=O)/C=C/c2cccc([N+](=O)[O-])c2)C1 (configuration not stated) | inactive: -0.225% | – |
| CCc1ccc(CN2CCN(c3ncccn3)CC2)cc1 | – | inconclusive: 0.282 µM [inhibitor, full curve, poor fit] |
| N#Cc1cn(-c2ccccc2)nc1-c1ccco1 | – | inconclusive: 44.7 µM [inhibitor, partial curve] |
| COc1ccc(N(CC(=O)NCCSc2ccc(C)cc2)S(=O)(=O)c2ccccc2)c(OC)c1 | – | inconclusive: 89.1 µM [inhibitor, partial curve, poor fit] |
| O=C(CSc1cccc[n+]1[O-])Nc1ccccc1C(F)(F)F | inactive: -24.7% | – |
| COc1cccc(OCCCN2CCC(C(O)(c3ccccc3)c3ccccc3)CC2)c1 | – | inconclusive: 22.4 µM [inhibitor, partial curve] |
| CCCOP(=O)(c1ccc(N(C)C)cc1)C(Nc1ccccc1)c1ccc(N(C)C)cc1 (configuration not stated) | inactive: -1.27% | – |
| CCNc1ncc2nc(-c3ccccc3)c(=O)n(Cc3cccc(OC)c3)c2n1 | – | inconclusive: 89.1 µM [inhibitor, single point] |
| CCC(=O)Nc1ccc(C(C)CC)cc1 (configuration not stated) | inactive: 13% | – |
| COc1ccc2cc(-c3cc(C(=O)OCC(=O)NC4CCS(=O)(=O)C4)c4ccccc4n3)ccc2c1 (configuration not stated) | inactive: -25.2% | – |
| O=C1C=C(c2ccc(F)cc2OCc2ccccc2)C[C@@H](c2ccc3c(c2)OCO3)C1 | – | inconclusive: 15.8 µM [inhibitor, partial curve, poor fit] |
